# Experimental data published in the supplement of paper PMC6411743.
# Protein sequences, listed by entry. Tags and fused reporters are not part of them. Lines headed by an entry give the natural chain unless they say otherwise; changes in a name come on top.
# UniProt Q8NBS9: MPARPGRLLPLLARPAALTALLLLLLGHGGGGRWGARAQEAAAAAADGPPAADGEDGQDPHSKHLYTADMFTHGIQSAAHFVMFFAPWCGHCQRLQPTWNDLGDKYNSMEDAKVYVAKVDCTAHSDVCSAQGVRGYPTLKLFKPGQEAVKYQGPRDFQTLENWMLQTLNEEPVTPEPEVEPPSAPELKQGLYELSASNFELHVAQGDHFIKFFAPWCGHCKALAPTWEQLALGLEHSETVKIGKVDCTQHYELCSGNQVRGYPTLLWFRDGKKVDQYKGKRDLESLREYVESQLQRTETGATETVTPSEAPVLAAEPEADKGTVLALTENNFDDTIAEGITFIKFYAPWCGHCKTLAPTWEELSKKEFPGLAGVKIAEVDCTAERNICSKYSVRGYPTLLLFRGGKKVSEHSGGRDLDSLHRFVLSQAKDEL
# UniProt Q8IYJ3: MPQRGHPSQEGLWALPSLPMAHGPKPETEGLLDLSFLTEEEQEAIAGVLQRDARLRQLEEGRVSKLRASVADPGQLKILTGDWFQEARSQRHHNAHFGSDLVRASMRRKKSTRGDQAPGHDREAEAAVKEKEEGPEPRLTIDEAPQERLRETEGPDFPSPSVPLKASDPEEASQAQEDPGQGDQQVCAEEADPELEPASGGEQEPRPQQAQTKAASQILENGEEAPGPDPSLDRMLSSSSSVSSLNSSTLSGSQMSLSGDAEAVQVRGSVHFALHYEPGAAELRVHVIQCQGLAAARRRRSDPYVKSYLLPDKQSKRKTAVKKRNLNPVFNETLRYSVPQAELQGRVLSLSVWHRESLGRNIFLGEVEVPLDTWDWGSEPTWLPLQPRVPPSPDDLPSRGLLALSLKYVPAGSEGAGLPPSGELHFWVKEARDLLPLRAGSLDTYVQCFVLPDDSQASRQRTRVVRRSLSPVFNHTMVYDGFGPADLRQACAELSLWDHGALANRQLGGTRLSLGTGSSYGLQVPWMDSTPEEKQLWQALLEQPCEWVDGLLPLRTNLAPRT
# UniProt Q8N9R8: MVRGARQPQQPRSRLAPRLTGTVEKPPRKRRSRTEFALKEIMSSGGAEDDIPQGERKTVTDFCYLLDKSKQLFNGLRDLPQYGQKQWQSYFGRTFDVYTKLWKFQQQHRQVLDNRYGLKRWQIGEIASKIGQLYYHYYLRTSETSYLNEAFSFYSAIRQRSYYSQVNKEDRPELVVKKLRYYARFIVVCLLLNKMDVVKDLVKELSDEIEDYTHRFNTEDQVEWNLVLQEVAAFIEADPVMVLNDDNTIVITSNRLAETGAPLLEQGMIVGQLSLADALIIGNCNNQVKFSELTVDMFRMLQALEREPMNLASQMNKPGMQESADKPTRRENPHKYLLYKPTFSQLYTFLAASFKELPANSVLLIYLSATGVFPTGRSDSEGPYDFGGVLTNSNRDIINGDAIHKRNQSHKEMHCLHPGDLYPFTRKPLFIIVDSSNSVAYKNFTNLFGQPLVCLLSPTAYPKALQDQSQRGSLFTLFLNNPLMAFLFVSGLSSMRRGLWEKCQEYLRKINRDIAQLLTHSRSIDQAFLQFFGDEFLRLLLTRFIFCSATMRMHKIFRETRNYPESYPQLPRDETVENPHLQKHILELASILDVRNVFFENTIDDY
# UniProt Q8IY22: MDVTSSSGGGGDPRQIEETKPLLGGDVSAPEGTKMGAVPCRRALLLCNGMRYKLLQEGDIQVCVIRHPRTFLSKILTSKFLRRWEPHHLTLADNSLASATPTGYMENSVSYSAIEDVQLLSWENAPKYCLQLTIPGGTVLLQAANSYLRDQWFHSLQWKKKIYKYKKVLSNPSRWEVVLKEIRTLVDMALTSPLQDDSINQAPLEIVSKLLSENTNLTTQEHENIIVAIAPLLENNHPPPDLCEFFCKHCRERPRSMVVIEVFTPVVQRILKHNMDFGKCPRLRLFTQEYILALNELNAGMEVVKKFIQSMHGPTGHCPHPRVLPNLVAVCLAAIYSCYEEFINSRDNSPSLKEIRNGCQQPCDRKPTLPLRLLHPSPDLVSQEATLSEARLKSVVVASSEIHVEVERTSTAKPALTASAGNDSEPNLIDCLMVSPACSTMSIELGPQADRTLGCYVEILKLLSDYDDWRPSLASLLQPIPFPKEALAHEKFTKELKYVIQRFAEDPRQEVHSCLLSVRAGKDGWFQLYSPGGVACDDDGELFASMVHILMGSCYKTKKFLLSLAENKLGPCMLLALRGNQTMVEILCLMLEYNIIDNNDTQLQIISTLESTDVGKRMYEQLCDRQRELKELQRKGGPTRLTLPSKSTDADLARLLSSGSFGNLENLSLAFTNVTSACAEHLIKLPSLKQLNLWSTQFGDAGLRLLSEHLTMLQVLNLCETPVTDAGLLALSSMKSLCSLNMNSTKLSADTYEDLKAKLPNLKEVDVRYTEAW
# UniProt Q8N4P3, whole entry: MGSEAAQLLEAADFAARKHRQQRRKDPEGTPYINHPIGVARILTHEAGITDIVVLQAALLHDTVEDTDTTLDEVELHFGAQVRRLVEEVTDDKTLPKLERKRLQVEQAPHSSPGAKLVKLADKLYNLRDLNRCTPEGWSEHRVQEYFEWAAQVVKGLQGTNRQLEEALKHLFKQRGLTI
# UniProt Q8N954: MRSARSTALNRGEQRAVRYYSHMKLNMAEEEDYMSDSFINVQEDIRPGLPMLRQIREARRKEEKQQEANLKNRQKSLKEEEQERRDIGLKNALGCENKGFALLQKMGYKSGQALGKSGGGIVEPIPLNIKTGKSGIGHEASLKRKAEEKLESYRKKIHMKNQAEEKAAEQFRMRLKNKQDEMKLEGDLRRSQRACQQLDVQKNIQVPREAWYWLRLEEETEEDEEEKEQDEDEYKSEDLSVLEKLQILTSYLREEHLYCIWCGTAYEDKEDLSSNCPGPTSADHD
# UniProt Q8IW35: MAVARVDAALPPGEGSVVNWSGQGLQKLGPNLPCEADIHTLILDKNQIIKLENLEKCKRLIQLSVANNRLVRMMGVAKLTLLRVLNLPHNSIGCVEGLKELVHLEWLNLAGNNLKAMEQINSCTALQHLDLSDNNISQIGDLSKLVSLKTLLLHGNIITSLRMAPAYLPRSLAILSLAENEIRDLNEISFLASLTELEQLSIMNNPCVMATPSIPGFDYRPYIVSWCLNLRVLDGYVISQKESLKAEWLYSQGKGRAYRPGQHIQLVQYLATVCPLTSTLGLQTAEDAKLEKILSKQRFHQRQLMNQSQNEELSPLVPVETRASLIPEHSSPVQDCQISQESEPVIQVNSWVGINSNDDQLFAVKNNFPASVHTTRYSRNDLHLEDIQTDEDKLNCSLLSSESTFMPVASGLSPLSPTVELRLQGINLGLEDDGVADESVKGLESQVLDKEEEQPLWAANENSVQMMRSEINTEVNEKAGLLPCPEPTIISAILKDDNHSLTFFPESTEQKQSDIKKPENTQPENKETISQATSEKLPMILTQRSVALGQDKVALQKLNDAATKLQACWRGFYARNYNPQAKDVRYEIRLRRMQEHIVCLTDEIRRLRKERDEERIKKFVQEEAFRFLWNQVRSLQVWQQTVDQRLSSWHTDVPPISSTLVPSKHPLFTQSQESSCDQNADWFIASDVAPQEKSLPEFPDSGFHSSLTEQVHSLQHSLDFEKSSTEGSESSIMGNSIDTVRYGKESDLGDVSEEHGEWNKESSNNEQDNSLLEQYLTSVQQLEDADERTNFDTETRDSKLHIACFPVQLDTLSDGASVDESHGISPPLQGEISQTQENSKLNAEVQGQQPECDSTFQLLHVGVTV
# UniProt Q8IYS1: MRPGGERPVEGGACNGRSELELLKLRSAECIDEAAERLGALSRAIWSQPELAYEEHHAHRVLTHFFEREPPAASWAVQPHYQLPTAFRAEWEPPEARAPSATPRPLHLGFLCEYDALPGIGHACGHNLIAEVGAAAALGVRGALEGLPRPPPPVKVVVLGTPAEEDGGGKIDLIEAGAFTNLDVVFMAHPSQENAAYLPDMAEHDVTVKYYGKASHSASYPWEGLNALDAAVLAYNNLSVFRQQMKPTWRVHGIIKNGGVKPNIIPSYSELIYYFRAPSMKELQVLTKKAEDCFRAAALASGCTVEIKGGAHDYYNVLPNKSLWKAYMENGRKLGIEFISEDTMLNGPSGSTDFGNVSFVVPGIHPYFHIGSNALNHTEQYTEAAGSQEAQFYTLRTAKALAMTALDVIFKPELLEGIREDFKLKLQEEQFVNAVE
# UniProt Q8N9M1: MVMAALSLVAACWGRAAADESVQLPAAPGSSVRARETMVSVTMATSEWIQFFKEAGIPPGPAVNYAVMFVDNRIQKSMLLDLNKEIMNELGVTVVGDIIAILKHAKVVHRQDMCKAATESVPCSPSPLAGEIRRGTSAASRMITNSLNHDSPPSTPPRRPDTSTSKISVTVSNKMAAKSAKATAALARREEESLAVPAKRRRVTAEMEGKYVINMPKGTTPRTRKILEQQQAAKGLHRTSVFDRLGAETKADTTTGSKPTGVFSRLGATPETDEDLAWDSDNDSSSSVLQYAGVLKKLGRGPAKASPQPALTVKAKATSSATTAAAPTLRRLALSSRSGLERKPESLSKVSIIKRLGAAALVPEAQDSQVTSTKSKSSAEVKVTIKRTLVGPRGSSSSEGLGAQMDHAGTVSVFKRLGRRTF
# UniProt Q8N0X4: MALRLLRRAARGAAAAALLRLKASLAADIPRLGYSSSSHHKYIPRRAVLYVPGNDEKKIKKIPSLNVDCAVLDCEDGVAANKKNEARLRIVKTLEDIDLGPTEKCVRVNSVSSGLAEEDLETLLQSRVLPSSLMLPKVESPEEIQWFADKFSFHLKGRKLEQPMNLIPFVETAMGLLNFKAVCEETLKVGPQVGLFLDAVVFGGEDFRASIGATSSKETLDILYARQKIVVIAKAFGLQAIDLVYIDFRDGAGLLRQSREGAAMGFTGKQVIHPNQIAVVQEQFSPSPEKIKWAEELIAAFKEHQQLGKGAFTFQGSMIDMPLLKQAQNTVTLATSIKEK
# UniProt Q8IY81: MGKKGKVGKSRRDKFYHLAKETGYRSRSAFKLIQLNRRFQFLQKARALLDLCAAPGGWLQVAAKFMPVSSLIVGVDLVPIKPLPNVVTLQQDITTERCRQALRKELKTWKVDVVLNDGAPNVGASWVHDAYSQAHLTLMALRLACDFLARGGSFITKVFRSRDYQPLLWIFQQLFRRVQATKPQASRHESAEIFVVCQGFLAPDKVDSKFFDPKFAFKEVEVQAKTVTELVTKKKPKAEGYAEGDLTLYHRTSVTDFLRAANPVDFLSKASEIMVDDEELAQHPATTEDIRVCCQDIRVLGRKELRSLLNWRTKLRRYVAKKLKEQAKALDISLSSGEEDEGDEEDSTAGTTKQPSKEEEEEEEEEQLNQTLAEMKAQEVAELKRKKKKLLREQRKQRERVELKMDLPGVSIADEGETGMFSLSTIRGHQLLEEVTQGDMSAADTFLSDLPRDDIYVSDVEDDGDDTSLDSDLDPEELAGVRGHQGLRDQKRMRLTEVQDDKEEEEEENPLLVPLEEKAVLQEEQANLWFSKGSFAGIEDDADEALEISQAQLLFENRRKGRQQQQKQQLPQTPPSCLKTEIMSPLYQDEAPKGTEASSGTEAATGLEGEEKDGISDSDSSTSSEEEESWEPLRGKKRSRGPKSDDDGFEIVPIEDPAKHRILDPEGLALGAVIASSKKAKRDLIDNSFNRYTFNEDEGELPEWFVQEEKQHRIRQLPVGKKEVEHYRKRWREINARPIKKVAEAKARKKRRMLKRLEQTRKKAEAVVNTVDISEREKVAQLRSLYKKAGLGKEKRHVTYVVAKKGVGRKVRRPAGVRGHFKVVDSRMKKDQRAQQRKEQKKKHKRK
# UniProt Q86YM7: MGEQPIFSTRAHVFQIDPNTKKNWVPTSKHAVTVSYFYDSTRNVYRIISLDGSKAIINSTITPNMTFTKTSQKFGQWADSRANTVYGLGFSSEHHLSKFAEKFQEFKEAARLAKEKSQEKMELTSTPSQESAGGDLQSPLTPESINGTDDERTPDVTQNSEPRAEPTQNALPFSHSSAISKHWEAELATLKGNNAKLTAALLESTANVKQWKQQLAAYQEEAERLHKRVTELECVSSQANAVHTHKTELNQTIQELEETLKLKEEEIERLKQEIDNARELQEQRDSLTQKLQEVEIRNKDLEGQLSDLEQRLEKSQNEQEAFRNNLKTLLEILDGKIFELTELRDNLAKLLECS
# UniProt Q86YB8: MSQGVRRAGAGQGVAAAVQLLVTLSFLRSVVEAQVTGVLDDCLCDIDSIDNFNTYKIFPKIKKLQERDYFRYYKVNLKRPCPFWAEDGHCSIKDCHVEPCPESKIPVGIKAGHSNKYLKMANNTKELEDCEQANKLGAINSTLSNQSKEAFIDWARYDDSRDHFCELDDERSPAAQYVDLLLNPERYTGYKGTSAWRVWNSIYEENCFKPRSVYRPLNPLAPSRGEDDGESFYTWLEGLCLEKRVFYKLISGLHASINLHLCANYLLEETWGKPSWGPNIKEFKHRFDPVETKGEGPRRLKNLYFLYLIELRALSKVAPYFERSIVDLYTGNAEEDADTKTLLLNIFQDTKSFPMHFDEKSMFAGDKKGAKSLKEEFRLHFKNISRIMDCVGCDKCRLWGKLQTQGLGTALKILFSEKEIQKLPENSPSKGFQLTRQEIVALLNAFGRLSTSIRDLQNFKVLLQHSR
# ± gives the standard deviation of the averaged measurements. Only a part is listed here, and it is no random draw.
# Compound: Nc1ncnc2c1ncn2[C@@H]1O[C@H](COP(=O)(O)OP(=O)(O)NP(=O)(O)O)[C@@H](O)[C@H]1O [adenylyl imidodiphosphate]
# Test: NP40-soluble protein abundance relative to vehicle (solubility fold change) (ratio); higher = more soluble protein in presence of AMP-PNP
# In short: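 Data come from three independent experiments in which Dounce-homogenised Jurkat crude lysate was treated at eight concentrations from 0.1 to 10 mM. Treatment ran 10 min at room temperature and then 3 min at 37 °C, after which 0.8% NP40 and benzonase were added for 60 min at 4 °C before ultracentrifugation. The supernatant underwent TMT labelling and LC-MS/MS, and vsn-normalised intensities were expressed as fold change against the detergent-processed vehicle in each replicate.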
Target,NP40-soluble protein abundance (concentration: 1mM),NP40-soluble protein abundance (concentration: 2mM),NP40-soluble protein abundance (concentration: 4mM),NP40-soluble protein abundance (concentration: 6mM),NP40-soluble protein abundance (concentration: 8mM),NP40-soluble protein abundance (concentration: 10mM)
TXNDC5 (UniProt Q8NBS9),0.997 ± 0.027,1.01 ± 0.039,0.976 ± 0.025,0.98 ± 0.022,0.965 ± 0.04,0.984 ± 0.049
UniProt Q8IVS2,1.02 ± 0.046,1.01 ± 0.07,0.999 ± 0.012,1.03 ± 0.032,1.03 ± 0.018,1.03 ± 0.051
SYTL1 (UniProt Q8IYJ3),1.005 ± 0.0053,1.07 ± 0.066,1.04 ± 0.019,0.997 ± 0.011,0.9992 ± 0.0074,1.01 ± 0.018
UniProt Q8N163,0.929 ± 0.1,0.889 ± 0.052,0.849 ± 0.088,0.799 ± 0.11,0.757 ± 0.056,0.754 ± 0.082
ZNF687 (UniProt Q8N1G0),1.01 ± 0.046,1.034 ± 0.0073,1.051 ± 0.0088,1.04 ± 0.064,1.03 ± 0.03,1.1 ± 0.016
UniProt Q8N9R8 and related entries,1.01 ± 0.028,0.935 ± 0.052,1.02 ± 0.042,0.979 ± 0.039,1.03 ± 0.035,1.01 ± 0.048
CMIP (UniProt Q8IY22),0.986 ± 0.047,0.964 ± 0.031,0.942 ± 0.029,0.958 ± 0.046,0.935 ± 0.022,0.923 ± 0.043
UniProt Q8N4P3 and related entries,1 ± 0.046,1 ± 0.062,1.01 ± 0.041,0.986 ± 0.019,0.97 ± 0.038,0.955 ± 0.062
UniProt Q8NB78,0.99 ± 0.033,0.996 ± 0.011,1.02 ± 0.015,0.977 ± 0.01,1.015 ± 0.005,0.991 ± 0.039
UniProt Q8N954 and related entries,1.05 ± 0.057,1.08 ± 0.053,1.09 ± 0.021,1.09 ± 0.025,1.11 ± 0.034,1.12 ± 0.025
NDUFAF2 (UniProt Q8N183),1.03 ± 0.095,1.03 ± 0.076,0.99 ± 0.11,0.932 ± 0.065,0.94 ± 0.06,0.897 ± 0.12
ARL6IP6 (UniProt Q8N6S5),1.02 ± 0.034,1.02 ± 0.028,1.04 ± 0.022,0.971 ± 0.011,1.01 ± 0.025,1.01 ± 0.025
UniProt Q8IW35 and related entries,0.984 ± 0.027,0.982 ± 0.059,0.982 ± 0.024,0.962 ± 0.015,0.952 ± 0.033,0.963 ± 0.01
TMED4 (UniProt Q7Z7H5),1.017 ± 0.0076,0.973 ± 0.026,0.99 ± 0.032,1.02 ± 0.036,1.02 ± 0.025,1 ± 0.038
UniProt Q8NB15-2|Q8NB15,1.01 ± 0.029,1.02 ± 0.033,1.01 ± 0.037,0.992 ± 0.012,1 ± 0.035,1.01 ± 0.035
UniProt Q8NBM4 and related entries,0.95 ± 0.026,0.948 ± 0.017,0.934 ± 0.014,0.9469 ± 0.0045,0.944 ± 0.027,0.952 ± 0.039
C5orf24 (UniProt Q7Z6I8),1 ± 0.033,1.03 ± 0.051,1 ± 0.03,0.993 ± 0.013,0.974 ± 0.021,0.992 ± 0.011
UniProt Q8NBU5,1.02 ± 0.015,0.974 ± 0.029,0.993 ± 0.023,1 ± 0.019,1.01 ± 0.035,1.02 ± 0.041
UniProt Q8IZE3-2|X6RHX1,1 ± 0.051,1.01 ± 0.056,0.999 ± 0.064,0.973 ± 0.049,0.985 ± 0.046,0.989 ± 0.066
VPS52 (UniProt Q8N1B4),0.988 ± 0.021,0.959 ± 0.022,0.949 ± 0.011,0.922 ± 0.034,0.92 ± 0.043,0.909 ± 0.015
PM20D2 (UniProt Q8IYS1),0.98 ± 0.04,0.91 ± 0.1,0.977 ± 0.025,0.964 ± 0.031,0.993 ± 0.034,0.94 ± 0.025
UniProt Q8N0V3,0.9958 ± 0.0084,1 ± 0.034,0.976 ± 0.01,0.993 ± 0.012,1 ± 0.036,0.987 ± 0.023
UniProt Q8N9M1 and related entries,0.938 ± 0.057,0.968 ± 0.061,0.929 ± 0.099,0.974 ± 0.099,0.97 ± 0.066,0.998 ± 0.12
UniProt Q8IZ83 and related entries,0.978 ± 0.029,0.952 ± 0.066,0.951 ± 0.025,0.929 ± 0.066,0.926 ± 0.078,0.933 ± 0.078
GUF1 (UniProt Q8N442),0.986 ± 0.026,0.965 ± 0.031,1.01 ± 0.028,0.983 ± 0.034,1.03 ± 0.059,1.03 ± 0.04
CLYBL (UniProt Q8N0X4),1.01 ± 0.016,0.978 ± 0.013,1 ± 0.02,0.982 ± 0.043,0.9692 ± 0.0037,0.9819 ± 0.0062
FTSJ3 (UniProt Q8IY81),1.02 ± 0.031,1.08 ± 0.09,1.06 ± 0.013,1.069 ± 0.0079,1.04 ± 0.0048,1.1 ± 0.031
HOMER1 (UniProt Q86YM7),0.994 ± 0.029,1.03 ± 0.049,1.01 ± 0.039,1 ± 0.011,1.01 ± 0.026,0.9818 ± 0.0089
UniProt Q8IVW6 and related entries,1.05 ± 0.056,1.03 ± 0.013,1.06 ± 0.032,1.01 ± 0.018,1.02 ± 0.037,1.01 ± 0.063
UniProt Q86YB8,1 ± 0.015,1.01 ± 0.014,0.9989 ± 0.0091,0.997 ± 0.012,0.994 ± 0.019,1 ± 0.022

# 2 consecutive entries out of the list so far, quoted:
Target,NP40-soluble protein abundance (concentration: 1mM),NP40-soluble protein abundance (concentration: 2mM),NP40-soluble protein abundance (concentration: 4mM),NP40-soluble protein abundance (concentration: 6mM),NP40-soluble protein abundance (concentration: 8mM),NP40-soluble protein abundance (concentration: 10mM)
UniProt Q8NB15-2|Q8NB15,1.01 ± 0.029,1.02 ± 0.033,1.01 ± 0.037,0.992 ± 0.012,1 ± 0.035,1.01 ± 0.035
UniProt Q8NBM4 and related entries,0.95 ± 0.026,0.948 ± 0.017,0.934 ± 0.014,0.9469 ± 0.0045,0.944 ± 0.027,0.952 ± 0.039
